From publication PMC5011436 come the findings set out here.

Protein sequences, listed by entry. Tags and fused reporters are not part of them.
UniProt P42656: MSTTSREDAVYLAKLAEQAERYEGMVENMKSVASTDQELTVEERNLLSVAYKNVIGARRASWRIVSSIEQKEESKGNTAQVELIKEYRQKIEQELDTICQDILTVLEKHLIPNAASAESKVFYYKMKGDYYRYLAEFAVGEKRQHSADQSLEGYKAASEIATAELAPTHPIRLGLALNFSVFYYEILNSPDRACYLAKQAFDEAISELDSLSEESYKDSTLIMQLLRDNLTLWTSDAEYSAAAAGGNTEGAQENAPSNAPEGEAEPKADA

No constants are given. Whether binding was seen depends on the method and setting. In cells and extracts the contact can be indirect. Some results given as binding are weak or reduced against the parent protein; the word gives no strength. Sequences can lack the tags named with a protein.

The target in assay [1] is GST-Rad24 (S. pombe) (UniProt P42656). The assay is described as follows: pull-down; GST or GST-Rad24 on glutathione sepharose or magnetic beads, mixed with fission yeast protein extract of Sts5-HA strains overnight at 4°C; washed with TRIS lysis buffer (50 mM TrisCl pH 7.7, 150 mM NaCl, 5 mM EDTA, 5% glycerol, 1% Triton X); anti-HA western blot; extracts of untreated cells, of orb6-as2 cells with DMSO and of orb6+ cells with DMSO or 50 μM 1-NA-PP1; only the target purified. For orientation: Immunoblotting shows a protein as a band on a membrane.

Assay [2] has the same target. Put plainly: condition: only extract of orb6-as2 cells treated with 50 μM 1-NA-PP1 (Orb6-as2 kinase inhibited); pull-down; as a1, but extract of orb6-as2 cells incubated with 50 μM 1-NA-PP1 for 15 min at 32°C (Orb6-as2 kinase inhibited); only the target purified.

B1: Sts5-HA (protein, UniProt O74454 1-1066)
chain: MDEEFENDFPYKVMLNQQQDPSDAQSSPTFVPSANPSLTTPWLQTTPSANRPTWLPLQQHMHQLRHTGLLPAVESSFVHGHRRSASAGVGMGNFSNQATIPSNSPAVSNMQPPTQGGQPLYPTNFFTTSVSASSDSFPNSPTVPSKFSLNPSVATSTNISPRRHAKSHSVASVSSPNSHNAVPFTPHAFVPPVNNASPLPALNTLPQLLRPRNLDAQWRPSSLSQTNSPTHAANPSFPGTIVTHNTSNFRPEGGGHRHRRSTGSLSVGSSGSGFSSGGSGNPRKNLFSPYLPQSSIPALLAERRLVTGILIVSKKNRSDAFVSVDGLDAEVFICGSKDRNRALEGDVVAIELLDVDEVWAGKLEKEENRRRKDPISTRGSFDNLRIDAVPFEVPQRSAIKARDDEQVEGQTLFLLDQKQLGADEKPKYAGHVVAVLQRAPGQVFSGTLGILRPSSAANKERQTSSGNQGSSNNSGNDKPKIVWFKPSDKRVPLIAIPTEQAPTDFLGNDQAYAQRLFLASIKRWPVTSLHPFGMLVGELGSMDSMSAQVSALLHDTGVHSEPWEGSAATSAVTALNALSDNFLNVAGCADYRSEDVFLFVKNDVSKAAVSEVKQHESNINSSSATDFVSSAFHIRPTSTGYHVGIHVTDVSRVIEPGSPLDRELQRRSIAVNLCQKSVPLFPTTLGEALSLREDKDCYTMSLLLDVSSTGKIRGTWIGWAVIRPRKAYTMKEADELLQTDARLRLFHTVSSRLRTHHLGTDVPLSRYCRLVRRWDEESCSFDPNETNLFISSAVEVLRETLLDAANRAVASHLRQEFRENAFLRTQRLPSRENCRILQSMAIQMGCVLDLSSTKSLLRSLSLIEDDTVRNILQLYYYKVTPRAVYEMQKYKGNLASQMMSLGIEDESDDLTHFTAPLERYGDIVVHYQLQLLLRGELASEKRLRVWSQAANDASRRLVISKFAQETSIHIKIFSDWAESQVWQDGLVCFVAPSYFDVFFPSLGMEKRVHLDLLNLTHVRFEEDQGILSLYDESGAVTVVKLLTSVKVKLFVQLSTPPLINVSNVEF
On to B1, for which the binding result with GST-Rad24 (S. pombe) [1] is “binds”; with GST-Rad24 (S. pombe) [2], “no binding”.
